The text below walks through data of PMC10715029, “Interaction and assembly of the DNA replication core proteins of Kaposi’s sarcoma-associated herpesvirus” (Microbiology Spectrum, 2023).

Results are given in words; binding and its absence hold for the method and conditions named.

This experiment has as its target T1, GAL4-ORF6 (Kaposi's sarcoma-associated herpesvirus (KSHV, human herpesvirus 8)) (UniProt Q2HRD3).
T1 sequence: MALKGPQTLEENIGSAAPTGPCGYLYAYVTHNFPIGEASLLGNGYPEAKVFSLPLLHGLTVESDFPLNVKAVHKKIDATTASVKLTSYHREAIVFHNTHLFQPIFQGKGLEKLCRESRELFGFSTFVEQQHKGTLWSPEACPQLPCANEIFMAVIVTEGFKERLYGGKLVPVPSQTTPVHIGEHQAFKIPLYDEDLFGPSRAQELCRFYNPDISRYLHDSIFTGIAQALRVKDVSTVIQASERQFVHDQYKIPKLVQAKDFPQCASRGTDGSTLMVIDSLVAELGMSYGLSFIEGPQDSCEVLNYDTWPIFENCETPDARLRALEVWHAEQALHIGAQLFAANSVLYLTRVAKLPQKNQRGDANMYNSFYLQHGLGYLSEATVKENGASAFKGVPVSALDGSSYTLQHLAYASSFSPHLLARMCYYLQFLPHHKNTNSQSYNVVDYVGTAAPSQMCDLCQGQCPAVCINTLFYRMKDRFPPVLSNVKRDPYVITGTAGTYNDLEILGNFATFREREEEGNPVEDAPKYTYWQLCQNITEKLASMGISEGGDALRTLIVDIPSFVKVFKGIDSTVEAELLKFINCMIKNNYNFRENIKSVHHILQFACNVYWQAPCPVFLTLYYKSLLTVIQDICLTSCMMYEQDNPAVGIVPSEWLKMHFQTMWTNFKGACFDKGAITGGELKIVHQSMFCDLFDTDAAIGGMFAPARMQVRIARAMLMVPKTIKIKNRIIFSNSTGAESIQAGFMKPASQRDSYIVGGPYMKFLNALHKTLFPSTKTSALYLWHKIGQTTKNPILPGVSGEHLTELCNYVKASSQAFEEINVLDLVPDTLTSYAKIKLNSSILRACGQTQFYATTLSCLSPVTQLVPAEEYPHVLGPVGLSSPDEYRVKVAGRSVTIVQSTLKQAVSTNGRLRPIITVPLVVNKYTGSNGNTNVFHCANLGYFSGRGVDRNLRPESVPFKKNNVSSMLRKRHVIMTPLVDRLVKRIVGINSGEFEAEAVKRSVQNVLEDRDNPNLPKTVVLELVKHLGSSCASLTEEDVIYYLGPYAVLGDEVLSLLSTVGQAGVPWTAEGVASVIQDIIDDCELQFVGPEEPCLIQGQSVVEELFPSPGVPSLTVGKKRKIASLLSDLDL
As to the kind of experiment: two-hybrid; mammalian two-hybrid (GAL4/VP16) in 293T cells, pGal4(5×)-Luc reporter, GAL4 and VP16 fusions coexpressed with further FLAG-tagged core replication proteins, luciferase at 24 h, fold activation over empty vector; radicicol (0.25-1 µM) inhibited the activation by GAL4-ORF56, VP16-ORF44 and F-ORF40/41 dose-dependently.

B1: VP16-ORF9 (protein, UniProt Q2HRD0 1-1012)
chain: MDFFNPFIDPTRGGPRNTVRQPTPSQSPTVPSETRVCRLIPACFQTPGRPGVVAVDTTFPPTYFQGPKRGEVFAGETGSIWKTRRGQARNAPMSHLIFHVYDIVETTYTADRCEDVPFSFQTDIIPSGTVLKLLGRTLDGASVCVNVFRQRCYFYTLAPQGVNLTHVLQQALQAGFGRASCGFSTEPVRKKILRAYDTQQYAVQKITLSSSPMMRTLSDRLTTCGCEVFESNVDAIRRFVLDHGFSTFGWYECSNPAPRTQARDSWTELEFDCSWEDLKFIPERTEWPPYTILSFDIECMGEKGFPNATQDEDMIIQISCVLHTVGNDKPYTRMLLGLGTCDPLPGVEVFEFPSEYDMLAAFLSMLRDYNVEFITGYNIANFDLPYIIARATQVYDFKLQDFTKIKTGSVFEVHQPRGGSDGGNFMRSQSKVKISGIVPIDMYQVCREKLSLSDYKLDTVAKQCLGRQKDDISYKDIPPLFKSGPDGRAKVGNYCVIDSVLVMDLLLRFQTHVEISEIAKLAKIPTRRVLTDGQQIRVFSCLLEAAATEGYILPVPKGDAVSGYQGATVISPSPGFYDDPVLVVDFASLYPSIIQAHNLCYSTLIPGDSLHLHPHLSPDDYETFVLSGGPVHFVKKHKRESLLAKLLTVWLAKRKEIRKTLASCTDPALKTILDKQQLAIKVTCNAVYGFTGVASGILPCLNIAETVTLQGRKMLERSQAFVEAISPERLAGLLRRPVDVSPDARFKVIYGDTDSLFICCMGFNMDSVSDFAEELASITTNTLFRSPIKLEAEKIFKCLLLLTKKRYVGVLSDDKVLMKGVDLIRKTACRFVQEKSSQVLDLILREPSVKAAAKLISGQATDWVYREGLPEGFVKIIQVLNASHRELCERSVPVDKLTFTTELSRPLADYKTQNLPHLTVYQKLQARQEELPQIHDRIPYVFVDAPGSLRSELAEHPEYVKQHGLRVAVDLYFDKLVHAVANIIQCLFQNNTSATVAILYNFLDIPVTFPTP
For B1, the binding entry is reported as “no binding”.
